We go through ten targets from the supplement of paper PMC10849652.

Protein sequences, listed by entry. Tags and fused reporters are not part of them. Lines headed by an entry give the natural chain unless they say otherwise; changes in a name come on top.
UniProt Q5T8P6: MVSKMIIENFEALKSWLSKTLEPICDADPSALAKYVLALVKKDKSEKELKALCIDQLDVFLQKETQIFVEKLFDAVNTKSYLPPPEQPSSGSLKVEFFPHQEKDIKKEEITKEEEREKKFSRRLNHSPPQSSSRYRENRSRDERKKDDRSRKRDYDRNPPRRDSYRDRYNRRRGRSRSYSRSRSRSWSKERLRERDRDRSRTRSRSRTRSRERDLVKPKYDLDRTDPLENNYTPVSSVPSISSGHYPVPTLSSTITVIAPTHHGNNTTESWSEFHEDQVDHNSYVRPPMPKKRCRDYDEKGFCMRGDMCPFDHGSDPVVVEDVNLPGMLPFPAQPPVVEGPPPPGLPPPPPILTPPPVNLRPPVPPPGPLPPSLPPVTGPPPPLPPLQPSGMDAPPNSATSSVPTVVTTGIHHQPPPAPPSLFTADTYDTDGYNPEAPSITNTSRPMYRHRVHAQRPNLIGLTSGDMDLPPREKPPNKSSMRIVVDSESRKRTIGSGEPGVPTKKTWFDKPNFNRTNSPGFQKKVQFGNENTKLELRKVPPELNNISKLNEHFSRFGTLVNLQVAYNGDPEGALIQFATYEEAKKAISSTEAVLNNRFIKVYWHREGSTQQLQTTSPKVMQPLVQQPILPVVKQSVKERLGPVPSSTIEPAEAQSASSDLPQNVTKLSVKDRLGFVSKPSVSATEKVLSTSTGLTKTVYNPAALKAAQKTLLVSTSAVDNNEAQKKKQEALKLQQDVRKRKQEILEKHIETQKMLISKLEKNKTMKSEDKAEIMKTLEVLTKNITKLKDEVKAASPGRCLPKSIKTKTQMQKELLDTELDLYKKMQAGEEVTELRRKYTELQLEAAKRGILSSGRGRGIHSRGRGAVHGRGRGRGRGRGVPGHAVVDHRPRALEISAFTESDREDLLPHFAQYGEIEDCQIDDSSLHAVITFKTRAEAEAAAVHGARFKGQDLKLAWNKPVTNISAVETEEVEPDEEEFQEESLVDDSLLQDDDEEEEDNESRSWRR
UniProt Q96EV2: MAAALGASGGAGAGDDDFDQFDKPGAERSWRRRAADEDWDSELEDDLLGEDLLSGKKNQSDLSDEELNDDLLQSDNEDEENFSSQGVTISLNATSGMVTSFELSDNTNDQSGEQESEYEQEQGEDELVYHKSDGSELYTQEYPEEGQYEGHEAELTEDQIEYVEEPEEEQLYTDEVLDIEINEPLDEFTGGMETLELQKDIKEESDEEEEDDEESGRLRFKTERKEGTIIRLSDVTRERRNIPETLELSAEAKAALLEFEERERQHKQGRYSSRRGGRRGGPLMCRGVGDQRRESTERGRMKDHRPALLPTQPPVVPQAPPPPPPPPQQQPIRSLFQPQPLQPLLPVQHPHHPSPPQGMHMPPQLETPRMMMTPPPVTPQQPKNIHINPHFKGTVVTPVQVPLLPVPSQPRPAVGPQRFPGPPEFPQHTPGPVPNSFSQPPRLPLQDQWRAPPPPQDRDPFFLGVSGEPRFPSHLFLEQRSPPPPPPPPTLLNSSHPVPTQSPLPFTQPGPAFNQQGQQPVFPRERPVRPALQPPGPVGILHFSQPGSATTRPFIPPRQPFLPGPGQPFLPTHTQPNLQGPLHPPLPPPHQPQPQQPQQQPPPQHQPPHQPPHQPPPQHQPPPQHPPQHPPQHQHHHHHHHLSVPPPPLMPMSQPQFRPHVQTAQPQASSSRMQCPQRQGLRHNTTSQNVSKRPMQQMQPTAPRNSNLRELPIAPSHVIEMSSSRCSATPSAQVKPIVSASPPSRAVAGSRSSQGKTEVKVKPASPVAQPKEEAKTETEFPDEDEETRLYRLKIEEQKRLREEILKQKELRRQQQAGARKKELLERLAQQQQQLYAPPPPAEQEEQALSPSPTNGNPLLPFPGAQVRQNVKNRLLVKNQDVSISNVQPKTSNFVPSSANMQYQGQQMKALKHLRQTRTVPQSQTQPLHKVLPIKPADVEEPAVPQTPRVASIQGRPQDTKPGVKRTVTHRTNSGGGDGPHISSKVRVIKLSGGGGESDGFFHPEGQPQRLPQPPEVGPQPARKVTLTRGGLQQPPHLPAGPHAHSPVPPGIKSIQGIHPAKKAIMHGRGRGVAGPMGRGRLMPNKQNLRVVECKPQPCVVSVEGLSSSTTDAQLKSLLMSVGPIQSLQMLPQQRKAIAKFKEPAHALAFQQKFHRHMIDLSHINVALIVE
UniProt P98179: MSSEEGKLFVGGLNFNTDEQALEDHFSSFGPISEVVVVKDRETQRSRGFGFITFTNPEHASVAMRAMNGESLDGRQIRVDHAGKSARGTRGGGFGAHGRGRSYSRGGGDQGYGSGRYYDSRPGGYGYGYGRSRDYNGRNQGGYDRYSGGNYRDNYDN
UniProt P82980: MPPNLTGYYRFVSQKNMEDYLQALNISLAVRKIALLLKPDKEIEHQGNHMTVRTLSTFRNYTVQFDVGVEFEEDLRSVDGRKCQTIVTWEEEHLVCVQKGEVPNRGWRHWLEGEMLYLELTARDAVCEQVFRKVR
UniProt Q14644: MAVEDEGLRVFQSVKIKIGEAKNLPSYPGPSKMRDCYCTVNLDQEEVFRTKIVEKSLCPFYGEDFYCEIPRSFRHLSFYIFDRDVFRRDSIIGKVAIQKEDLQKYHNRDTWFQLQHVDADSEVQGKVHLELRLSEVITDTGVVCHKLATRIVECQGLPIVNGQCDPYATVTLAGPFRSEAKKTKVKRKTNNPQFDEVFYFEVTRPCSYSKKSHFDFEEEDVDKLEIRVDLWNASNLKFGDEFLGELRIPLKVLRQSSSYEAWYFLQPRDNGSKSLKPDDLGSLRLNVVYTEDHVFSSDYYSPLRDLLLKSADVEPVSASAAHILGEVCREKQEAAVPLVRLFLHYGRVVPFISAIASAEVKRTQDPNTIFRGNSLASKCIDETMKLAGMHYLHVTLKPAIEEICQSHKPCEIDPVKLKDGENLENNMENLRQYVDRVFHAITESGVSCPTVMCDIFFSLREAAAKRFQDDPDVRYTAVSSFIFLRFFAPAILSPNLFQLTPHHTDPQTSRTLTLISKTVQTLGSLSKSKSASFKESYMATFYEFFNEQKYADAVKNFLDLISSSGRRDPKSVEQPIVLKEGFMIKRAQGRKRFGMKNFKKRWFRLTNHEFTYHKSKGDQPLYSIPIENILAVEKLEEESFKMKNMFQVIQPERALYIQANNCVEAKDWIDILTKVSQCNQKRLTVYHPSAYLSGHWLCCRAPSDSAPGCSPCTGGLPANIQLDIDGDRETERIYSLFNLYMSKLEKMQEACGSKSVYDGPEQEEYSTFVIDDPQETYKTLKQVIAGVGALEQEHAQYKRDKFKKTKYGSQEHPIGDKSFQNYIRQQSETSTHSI
UniProt Q9P2R6: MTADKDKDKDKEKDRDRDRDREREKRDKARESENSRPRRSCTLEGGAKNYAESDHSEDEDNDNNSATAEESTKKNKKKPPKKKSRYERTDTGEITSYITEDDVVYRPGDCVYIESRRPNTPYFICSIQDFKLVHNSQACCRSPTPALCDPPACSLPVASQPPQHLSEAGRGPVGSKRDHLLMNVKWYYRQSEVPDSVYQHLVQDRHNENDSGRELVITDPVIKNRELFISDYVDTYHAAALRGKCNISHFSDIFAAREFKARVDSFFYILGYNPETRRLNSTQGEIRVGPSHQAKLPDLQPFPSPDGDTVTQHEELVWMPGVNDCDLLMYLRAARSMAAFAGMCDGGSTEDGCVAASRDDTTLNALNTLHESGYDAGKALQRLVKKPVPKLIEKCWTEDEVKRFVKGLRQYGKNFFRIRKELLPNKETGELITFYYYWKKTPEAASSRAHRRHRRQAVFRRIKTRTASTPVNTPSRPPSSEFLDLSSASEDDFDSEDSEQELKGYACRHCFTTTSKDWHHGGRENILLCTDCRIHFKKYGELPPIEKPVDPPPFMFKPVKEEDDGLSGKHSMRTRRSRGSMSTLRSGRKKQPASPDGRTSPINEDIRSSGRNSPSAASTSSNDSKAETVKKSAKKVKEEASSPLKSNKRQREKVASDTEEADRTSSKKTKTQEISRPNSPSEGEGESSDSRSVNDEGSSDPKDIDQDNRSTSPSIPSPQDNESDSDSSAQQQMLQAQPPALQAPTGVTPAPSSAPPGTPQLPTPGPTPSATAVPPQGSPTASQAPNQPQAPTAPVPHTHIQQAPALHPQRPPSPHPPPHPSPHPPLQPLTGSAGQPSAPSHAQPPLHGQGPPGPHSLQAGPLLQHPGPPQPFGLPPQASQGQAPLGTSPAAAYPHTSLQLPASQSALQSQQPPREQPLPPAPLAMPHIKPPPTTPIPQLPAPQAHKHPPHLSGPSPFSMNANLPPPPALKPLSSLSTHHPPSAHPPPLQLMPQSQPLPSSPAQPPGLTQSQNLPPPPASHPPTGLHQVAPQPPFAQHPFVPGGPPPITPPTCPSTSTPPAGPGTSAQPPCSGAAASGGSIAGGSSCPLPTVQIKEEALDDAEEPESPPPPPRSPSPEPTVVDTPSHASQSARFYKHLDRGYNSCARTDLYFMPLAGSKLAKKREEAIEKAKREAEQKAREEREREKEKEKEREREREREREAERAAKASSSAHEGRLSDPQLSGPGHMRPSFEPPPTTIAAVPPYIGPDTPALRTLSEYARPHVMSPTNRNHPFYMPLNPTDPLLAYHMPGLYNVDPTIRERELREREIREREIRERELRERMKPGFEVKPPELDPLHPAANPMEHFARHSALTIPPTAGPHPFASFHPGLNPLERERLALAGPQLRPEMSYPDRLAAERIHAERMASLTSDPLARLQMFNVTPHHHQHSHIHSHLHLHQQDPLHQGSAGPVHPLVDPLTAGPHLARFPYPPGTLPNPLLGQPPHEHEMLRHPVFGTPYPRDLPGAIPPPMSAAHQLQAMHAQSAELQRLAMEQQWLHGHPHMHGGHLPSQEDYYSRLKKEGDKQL
UniProt P35249, whole entry, looked up: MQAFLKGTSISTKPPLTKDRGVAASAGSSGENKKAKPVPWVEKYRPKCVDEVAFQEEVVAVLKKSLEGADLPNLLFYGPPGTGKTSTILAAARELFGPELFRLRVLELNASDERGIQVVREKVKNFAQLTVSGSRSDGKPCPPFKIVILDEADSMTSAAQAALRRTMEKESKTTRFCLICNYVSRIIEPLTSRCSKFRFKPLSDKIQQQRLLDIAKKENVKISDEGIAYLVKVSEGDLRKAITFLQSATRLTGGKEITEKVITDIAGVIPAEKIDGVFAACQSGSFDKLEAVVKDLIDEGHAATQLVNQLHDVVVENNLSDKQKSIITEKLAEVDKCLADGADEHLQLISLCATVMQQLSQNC
UniProt P35250, whole entry, looked up: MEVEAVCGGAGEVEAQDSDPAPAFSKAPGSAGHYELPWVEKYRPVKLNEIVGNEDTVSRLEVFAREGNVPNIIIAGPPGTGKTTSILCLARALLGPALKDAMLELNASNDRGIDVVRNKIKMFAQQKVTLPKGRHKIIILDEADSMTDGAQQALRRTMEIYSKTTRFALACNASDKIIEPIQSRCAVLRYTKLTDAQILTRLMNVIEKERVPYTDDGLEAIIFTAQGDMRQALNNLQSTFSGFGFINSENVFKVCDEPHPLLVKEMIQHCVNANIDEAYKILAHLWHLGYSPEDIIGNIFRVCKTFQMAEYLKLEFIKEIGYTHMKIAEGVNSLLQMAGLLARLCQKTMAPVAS
UniProt Q16576, whole entry, looked up: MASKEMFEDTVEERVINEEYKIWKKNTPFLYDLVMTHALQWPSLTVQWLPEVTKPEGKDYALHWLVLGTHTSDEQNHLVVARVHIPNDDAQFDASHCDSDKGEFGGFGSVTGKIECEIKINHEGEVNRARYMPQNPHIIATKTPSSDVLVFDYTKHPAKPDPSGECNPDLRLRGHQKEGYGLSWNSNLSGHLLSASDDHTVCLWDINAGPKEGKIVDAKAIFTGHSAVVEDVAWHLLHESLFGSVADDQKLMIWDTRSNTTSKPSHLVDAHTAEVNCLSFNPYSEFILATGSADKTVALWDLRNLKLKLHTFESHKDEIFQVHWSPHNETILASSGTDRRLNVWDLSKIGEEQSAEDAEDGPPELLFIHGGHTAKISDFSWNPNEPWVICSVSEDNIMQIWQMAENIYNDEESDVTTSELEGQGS
UniProt Q9H6H4: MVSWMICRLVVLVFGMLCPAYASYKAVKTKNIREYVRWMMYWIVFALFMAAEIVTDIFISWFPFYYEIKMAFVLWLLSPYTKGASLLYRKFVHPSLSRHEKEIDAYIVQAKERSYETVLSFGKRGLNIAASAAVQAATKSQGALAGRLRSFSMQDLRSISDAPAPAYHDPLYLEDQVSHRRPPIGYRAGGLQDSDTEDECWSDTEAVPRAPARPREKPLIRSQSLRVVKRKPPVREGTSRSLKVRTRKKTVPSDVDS

The other results are listed elsewhere or left out.

Holding throughout (assay): log2 fold change, soluble protein after heating vs DMSO (PISA); higher = thermal stabilisation; K562 lysate, 10 uM; active = over 0.2 and 3.5 SD of the protein, either way, in both replicates (recomputed)
Compound in test [1]: Cc1cn(-c2cc(NC(=O)c3ccc(C)c(Nc4nccc(-c5cccnc5)n4)c3)cc(C(F)(F)F)c2)cn1 [nilotinib]
The method, boiled down:
(§1)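 Dounce homogenisation of K562 pellets in PBS pH 7.4 with 1 mM MgCl2 produced a crude extract, used at 1 mg/mL protein. Exposure to 10 μM compound lasted 30 min, and aliquots were then heated for 3 min across 48°C-58°C, pooled and brought to 0.5% NP-40 at 4°C. The supernatant after 21,000xg for 90 min was quantified by TMTpro 16plex LC-MS/MS with channel sums equalised. Duplicate values are given as log-two fold change in thermal stability relative to solvent controls.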

Compound in test [2]: Cc1nc(Nc2n[nH]c3c2CN(C(=O)N[C@H](CN(C)C)c2ccccc2)C3(C)C)c2sccc2n1
The method, boiled down:
as §1

Compound in test [3]: Cc1nc(Nc2ncc(C(=O)Nc3c(C)cccc3Cl)s2)cc(N2CCN(CCO)CC2)n1 [dasatinib]
Put shortly: as §1

Compound in test [4]: Cc1ncc(-c2ccnc(Nc3ccc(S(C)(=O)=O)cc3)n2)n1C(C)C
Put shortly:
as §1

Compound in test [5]: Cn1cc(-c2ccc3c(c2)CCN3C(=O)Cc2cccc(C(F)(F)F)c2)c2c(N)ncnc21
The method, boiled down:
as §1

Compound in test [6]: Cn1cc(CNCC2CCN(c3ncc(C(=O)NO)cn3)CC2)c2ccccc21 [quisinostat]
The method, boiled down:
as §1

Compound in test [7]: Cn1cncc1[C@@](N)(c1ccc(Cl)cc1)c1ccc2c(c1)c(-c1cccc(Cl)c1)cc(=O)n2C [tipifarnib]
The method, boiled down: as §1

Compound in test [8]: NC(=O)Nc1cc(-c2cccc(F)c2)sc1C(=O)N[C@H]1CCCNC1
Put shortly:
as §1

Compound in test [9]: NC(=O)c1cnc(N[C@@H]2CCCC[C@@H]2N)nc1Nc1cccc(-n2nccn2)c1
Put shortly:
as §1

Compound in test [10]: NC1(c2ccc(-c3nc4ccn5c(=O)[nH]nc5c4cc3-c3ccccc3)cc2)CCC1
Put shortly: as §1

Compound in test [11]: NCC(=O)Nc1ccc(-n2nc(C(F)(F)F)cc2-c2ccc3c(ccc4ccccc43)c2)cc1
The method, boiled down:
as §1

Compound in test [12]: O=C(CCCCCCC(=O)Nc1ccccc1)NO [vorinostat]
The method, boiled down: as §1

Compound in test [13]: O=C(O)c1ccc2c(c1)nc(Nc1cccc(Cl)c1)c1ccncc12 [silmitasertib]
The method, boiled down: as §1

Compound in test [14]: O=C1NC(=O)C(c2cnc3ccccn23)=C1c1cn2c3c(cc(F)cc13)CN(C(=O)N1CCCCC1)CC2
Put shortly:
as §1

Compound in test [15]: c1cn2cc(-c3ccc4cn[nH]c4c3)nc(Nc3ccc(N4CCOCC4)cc3)c2n1 [entospletinib]
The method, boiled down: as §1

For the target RBM26 isoform 3 (UniProt Q5T8P6), the log2 fold change in test [1] is inactive: 0.068; in test [2], inactive: -0.004; in [3], inactive: -0.032; in test [4], inactive: 0.17; in [5] it was inactive: -0.173; in test [6] it was inactive: -0.06. Further, the log2 fold change in [7] is inactive: 0.077; in test [8], inactive: -0.019; in test [9], inactive: -0.132; in [10], inactive: 0.111; in [11], inactive: -0.014; in [12] it was inactive: -0.13. Besides, the log2 fold change in test [13] was inactive: 0.005; in test [14], inactive: 0.013; in test [15], inactive: -0.056.
For the target RBM33 (UniProt Q96EV2), the log2 fold change in [1] is inactive: 0.016; in test [2], inactive: -0.03; in test [3] it was inactive: -0.035; in test [4] it was inactive: -0.03; in test [5], inactive: 0.023; in test [6] it was inactive: -0.061. For the same target, the log2 fold change in test [7] is inactive: 0.08; in [8], inactive: -0.003; in test [9], inactive: -0.041; in [10], inactive: 0.041; in test [11], inactive: -0.002; in test [12], inactive: -0.207. The log2 fold change in test [13] was inactive: -0.027; in test [14], inactive: -0.007; in [15] it was inactive: -0.025.
On to RBM3 (UniProt P98179), for which the log2 fold change in [1] is inactive: 0.063; in [2], inactive: -0.064; in [3] it was inactive: -0.015; in test [4], inactive: 0.018; in [5], inactive: -0.107; in test [6], inactive: 0.134. Moreover, the log2 fold change was inactive: 0.047 in [7]; inactive: 0.001 in [8]; inactive: -0.034 in test [9]; inactive: 0.12 in test [10]; inactive: -0.044 in test [11]; inactive: 0.208 in test [12]. Also, the figures for the log2 fold change in [13], in test [14] and in test [15] were inactive: -0.164, inactive: -0.042 and inactive: 0.032, respectively.
Turning to RBP5 (UniProt P82980), the log2 fold change in [1] was inactive: 0.054; in test [2], inactive: 0.134; in test [3], inactive: 0.028; in [4], inactive: 0.014; in [5], inactive: -0.02; in test [6], inactive: -0.058. For the same target, the log2 fold change in test [7] is inactive: -0.095; in test [8] it was inactive: -0.022; in [9], inactive: -0.043; in test [10] it was inactive: -0.015; in test [11] it was inactive: -0.086; in test [12], inactive: 0.077. Further, the log2 fold change in [13] was inactive: -0.114; in test [14], inactive: -0.023; in [15], inactive: -0.074.
Take RASA3 (UniProt Q14644): the log2 fold change is inactive: 0.065 in [1]; inactive: -0.014 in test [2]; inactive: -0.144 in test [3]; inactive: 0.039 in test [4]; inactive: 0.109 in [5]; inactive: 0.062 in test [6]. Besides, the log2 fold change is inactive: 0.009 in test [7]; inactive: 0.011 in [8]; inactive: 0.012 in test [9]; inactive: 0.089 in [10]; inactive: -0.022 in test [11]; active: -0.361 in test [12]. Moreover, the log2 fold change in test [13] was inactive: -0.08; in [14], inactive: -0.015; in test [15] it was inactive: 0.017.
Turning to RERE (UniProt Q9P2R6), the log2 fold change is inactive: -0.065 in [1]; inactive: 0.06 in test [2]; inactive: -0.064 in [3]; inactive: 0.041 in test [4]; inactive: 0.009 in test [5]; inactive: -0.041 in test [6]. The log2 fold change was inactive: 0.001 in test [7]; inactive: 0.07 in test [8]; inactive: 0.026 in [9]; inactive: 0.067 in test [10]; inactive: 0.098 in test [11]; inactive: -0.119 in test [12]. Also, the values for the log2 fold change in test [13], in test [14] and in test [15] were inactive: -0.056, inactive: -0.043 and inactive: -0.103, respectively.
Take RFC4 (UniProt P35249): the log2 fold change in [1] is inactive: 0.001; in test [2] it was inactive: -0.029; in [3] it was inactive: -0.068; in [4] it was inactive: -0.002; in test [5], inactive: 0.047; in test [6], inactive: -0.016. For the same target, the log2 fold change is inactive: -0.004 in test [7]; inactive: 0.03 in test [8]; inactive: 0.015 in [9]; inactive: -0.011 in test [10]; inactive: 0.013 in [11]; active: -0.423 in test [12]. Also, the log2 fold change in [13] is inactive: 0.033; in [14] it was inactive: 0.008; in [15] it was inactive: 0.006.
Take RFC2 (UniProt P35250): the log2 fold change was inactive: 0.005 in [1]; inactive: -0.018 in test [2]; inactive: -0.027 in test [3]; inactive: -0.012 in test [4]; inactive: 0.062 in test [5]; inactive: -0.04 in test [6]. For the same target, the log2 fold change in test [7] was inactive: -0.014; in [8], inactive: 0.036; in test [9], inactive: 0.014; in test [10], inactive: -0.05; in test [11], inactive: -0.027; in [12], active: -0.506. Also, the log2 fold change in [13] is inactive: 0.043; in test [14], inactive: -0.017; in [15], inactive: 0.004.
In the case of RBBP7 (UniProt Q16576), the log2 fold change was inactive: -0.02 in test [1]; inactive: -0.002 in [2]; inactive: 0.029 in test [3]; inactive: 0.007 in test [4]; inactive: -0.006 in test [5]; inactive: -0.041 in [6]. Also, the log2 fold change in [7] was inactive: 0.014; in test [8] it was inactive: 0.04; in test [9], inactive: -0.003; in [10], inactive: 0.039; in test [11] it was inactive: -0.005; in [12], inactive: -0.091. Moreover, the log2 fold change was inactive: 0.033 in test [13], inactive: -0.167 in [14] and inactive: 0 in [15].
Take REEP4 (UniProt Q9H6H4): the log2 fold change in test [1] is inactive: 0.08; in [2], inactive: -0.048; in test [3] it was inactive: -0.063; in test [4] it was inactive: 0.042; in test [5] it was inactive: -0.012; in [6], inactive: 0.053. Moreover, the log2 fold change in [7] is inactive: -0.038; in test [8], inactive: -0.035; in test [9], inactive: 0.032; in test [10] it was inactive: -0.009; in test [11] it was inactive: -0.007; in [12], inactive: 0.066. The log2 fold change in test [13] was inactive: -0.067; in test [14], inactive: 0.025; in test [15], inactive: 0.033.
